Laboratory results as given in PubChem BioAssay AID493014 (National Center for Advancing Translational Sciences (NCATS), 2011).
Among all 340,000 compounds or so, about 170 (0.05%) were called active. The shares of active, inactive and inconclusive entries below differ from those in the screen. Calls come from the whole dose curve; as a rule, active = well fitted inhibition curve with a large enough effect in the signal ratio, with a control signal flat (not every such curve was filed as active); inconclusive = small, poorly fitted or top-dose-only effect, or effect the other way, or a change in a side signal; inactive = flat fitted curve, though single readings scatter; the % refers to the signal ratio. A potency beside an inconclusive call is a rough fit, not a confirmed value.

Test: qHTS Assay to Find Inhibitors of Chronic Active B-Cell Receptor Signaling;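 for activity change, negative = inhibition: plate controls were basal doxycycline-induced cells for no effect and cells given 10 µM MG132 for full effect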
Settings: ABC-DLBCL IkBa-CBG/CBR reporter, luminescence ratio (green luciferase fused to IkBa over red control in TMD8 lymphoma cells), 4 h; activity change, negative = inhibition: at 46.1 µM (top of the series)
In short: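 Concentration-response series (up to 46 uM) were applied to TMD8 dual-reporter cells for 4 h at 37C with doxycycline. Green/red ratio, after filter-overlap correction, defined %Activity; red signal alone was normalised to basal cells and zero luminescence.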
Potency is the fitted concentration of half-maximal effect.

Row | Structure (SMILES) | Potency | activity change, negative = inhibition
1 | C/C(=N/NC(=O)c1cccs1)c1cccc(NC(=O)C2CC2)c1 | inconclusive: 25.1 µM [falling, single point] | –
2 | COC(=O)/C(=N/Nc1ccccc1C)N1CCCc2ccccc21 | – | inconclusive: -3.98%
3 | O=c1[nH]c(NC2CCCCC2)nnc1Cc1ccccc1 | – | inconclusive: 6.48%
4 | O=C(Nc1ccc(-c2nnco2)cc1)c1ccccc1 | inconclusive: 29.1 µM [falling, partial curve] | –
5 | NS(=O)(=O)c1ccc(NC(=O)CSc2ccccc2)cc1 | – | inactive
6 | CCc1ccc(NC(=O)CSc2nnnn2C)cc1 | – | inactive
7 | CC(=O)Nc1ccc(S(=O)(=O)N2CCSc3ccccc32)cc1 | inconclusive: 18.4 µM [cytotoxic, partial curve] | –
8 | COC(=O)c1ccc(C(=O)OC)c(NC(=O)C2CCCO2)c1 (stereo not drawn) | – | inactive
9 | COCC(=O)Nc1cc(OC)cc(OC)c1 | inconclusive: 18.4 µM [falling, partial curve, poor fit] | –
10 | CCN1CCN(c2cc(C)c3cc(NC(=S)N4CCOCC4)ccc3n2)CC1 | inconclusive: 22.4 µM [falling, single point] | –
11 | Cc1ccnc(N2CCC(C(=O)Nc3ccc4c(c3)OCCO4)CC2)n1 | – | inconclusive: -13.4%
12 | CC(Sc1ncc(C#N)c(N)n1)C(=O)Nc1ccccc1 (stereo not drawn) | – | inactive
13 | CCn1nnc(NC(=O)c2cccnc2Cl)n1 | – | inconclusive: 1.63%
14 | CN(c1cccc(Cl)c1)S(=O)(=O)c1cccc(C(=O)Nc2nc3ccccc3[nH]2)c1 | – | inconclusive: -4.84%
15 | COc1ccccc1N1CCN(S(=O)(=O)c2ccc3c4c(cccc24)C(=O)N3C)CC1 | – | inconclusive: 2.47%
16 | COc1cc2c(cc1NC(=O)CSCC(=O)O)oc1ccccc12 | inconclusive: 11.2 µM [falling, partial curve] | –
17 | Fc1ccc(NCc2nnc(SCc3ccccc3)o2)cc1 | – | inactive
18 | C[C@@H]1CN([C@H](C)CO)C(=O)c2cccc(NS(=O)(=O)c3cccs3)c2O[C@H]1CN(C)Cc1ccccc1 | – | inconclusive: -5.92%
19 | COCCNC(=S)N1CCc2cc(OC)c(OC)cc2C1COc1ccc(F)cc1 (stereo not drawn) | – | inconclusive: -1.3%
20 | CCC(CO)Nc1ncnc2c1cnn2-c1ccc(Cl)cc1 (stereo not drawn) | inconclusive: 25.1 µM [falling, single point] | –
21 | COc1cc(/C=C2/SC(=S)N(CCC(=O)Nc3ccccc3)C2=O)cc(OC)c1OC | – | inconclusive: -2.55%
22 | Cc1ccccc1NC(=O)COc1ccc(Br)cc1C | – | inconclusive: -0.698%
23 | Cn1c(CN2CCN(c3cccc(Cl)c3)CC2)nc2ccccc21 | – | inactive

Individual results from the list.
Under activity change, negative = inhibition, `COc1cc(/C=C2/SC(=S)N(CCC(=O)Nc3ccccc3)C2=O)cc(OC)c1OC` is entered as inconclusive: -2.55%
Under activity change, negative = inhibition, `COC(=O)/C(=N/Nc1ccccc1C)N1CCCc2ccccc21` is entered as inconclusive: -3.98%
